Assay results published in publication PMC8778314, “A New Series of Indeno[1,2-c]pyrazoles as EGFR TK Inhibitors for NSCLC Therapy” (Molecules, 2022).

Tested on: peripheral blood mononuclear cells (PBMCs)
Test: MTT cell viability assay, PBMCs
Settings: SI = IC50 for PBMCs/IC50 for K562 cells

SMILES | SI
COc1cc2c(cc1Cl)Cc1c-2nn(-c2ccc(Br)cc2)c1-c1ccc(N2CCCCC2)cc1 [Compound 4, 6-Chloro-7-methoxy-2-(4-bromophenyl)-3-[4-(piperidin-1-yl)phenyl]-2,4-dihydroindeno[1,2-c]pyrazole] | 7.38
COc1cc2c(cc1Cl)Cc1c-2nn(-c2ccc(C)cc2)c1-c1ccc(N2CCCCC2)cc1 [Compound 7, 6-Chloro-7-methoxy-2-(4-methylphenyl)-3-[4-(piperidin-1-yl)phenyl]-2,4-dihydroindeno[1,2-c]pyrazole] | > 36.23
